Test results as given in the supplement of paper PMC12889115.
This is one part of the list. These are raw signals, not scaled to a control.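 In the initial screen, polymyxin B was used at a concentration that permeabilizes Salmonella's outer membrane but not its inner membrane. Maximum growth was set by DMSO wells with or without polymyxin B. Since plates varied, data were ranked per plate, and compounds giving the lowest OD600 advanced as hits.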

System: Salmonella enterica serovar Typhimurium SL1344
Test: bacterial growth OD600 after 18 h with compound and polymyxin B; higher = more bacterial growth (less inhibition)
Settings: 50 µM, Mueller-Hinton broth

SMILES	bacterial growth OD600 (polymyxin B 1 µg/mL)	bacterial growth OD600 (polymyxin B 0.75 µg/mL)
Cc1ccc(NC2CCCN(C(=O)c3ccoc3)C2)cc1C (stereo unspecified)	0.842	
CCN1CCN(C2(C(=O)NCCOc3cccnc3)Cc3ccccc3C2)CC1		0.839
CC(C)CCCC1CN(C(=O)CCn2cncn2)CCO1 (stereo unspecified)	0.931	
COc1ccc2ccc(OCc3nc(C(=O)N(C)Cc4ccccn4)co3)cc2c1	0.996	
Cc1nc(C(=O)NCc2c(C)ncc3c2CCN(C(=O)C24CC5CC(CC(C5)C2)C4)C3)cs1		0.972
OC1CCN([C@@H]2CCN(Cc3ccc(F)c(F)c3)C[C@H]2O)CC1	0.94	
Fc1cc(F)cc(CN2CCOc3ccc(CN4CCC(Oc5cccnc5)CC4)cc3C2)c1		0.104
O=C(Cn1cc2ccccc2n1)NC1CCCc2c1cnn2-c1ccccc1F (stereo unspecified)		0.776
CCC(C)C(=O)N1CCC(C2(C)NC(=O)N(Cc3cccc(OC)c3OC)C2=O)CC1 (stereo unspecified)		0.903
COc1cccc(CC(C2CCN(C(=O)c3ccc(C)nc3)CC2)N(C)C(=O)c2ccsc2)c1 (stereo unspecified)		0.84
C=CCN(CC=C)c1ccc(-c2nc(-c3cccc(OC)c3OC)no2)cn1		-0.016
CCOC(=O)N1CCN(Cc2ccc3c(c2)CN(C(=O)CSc2nncn2C)CCO3)CC1		0.819
COc1ccc2cc(C(=O)C3CCCN(C(=O)c4snnc4C)C3)ccc2c1 (stereo unspecified)	0.876	
Cn1ccnc1CN1CCCC(CCc2c(F)cccc2F)C1 (stereo unspecified)		0.844
Cc1ccc(C(=O)NC2CCCN(CCc3ccccc3)C2)cn1 (stereo unspecified)		0.856
O=C(NCCCn1cccn1)C1(N2CCCCC2)Cc2ccccc2C1		0.875

SMILES	bacterial growth OD600 (polymyxin B 1 µg/mL)	bacterial growth OD600 (polymyxin B 0.75 µg/mL)
COc1cccc(CCC(=O)N2CCC(n3nccc3NC(=O)CC(C)C)CC2)c1	0.83	
O=C(Nc1ccnn1C1CCN(C(=O)CCc2ccc3c(c2)OCO3)CC1)C1CC1	0.953	
COCCN1C(=O)CC(CC(=O)N2CCN(c3ccc(O)cc3)CC2)(c2ccccc2F)C1=O (stereo unspecified)		0.856
COCCN1CC(C(=O)N2CCC3(C=Cc4ccccc43)CC2)CCC1=O (stereo unspecified)	0.817	
NC(=O)C1(C(=O)NC2CC(=O)N(CCc3cccc(Cl)c3)C2)CC1 (stereo unspecified)	0.966	
O=C(NC1CC1)C1CCCN(C2CCN(C(=O)Cc3cccc(F)c3)CC2)C1 (stereo unspecified)		0.833
CCC(NC(=O)c1cc(COc2ccccc2F)[nH]n1)c1ccncc1 (stereo unspecified)		0.981
COc1ccc(OC)c2nc(N3CCOCC3)c(CN(CC3COc4ccccc4O3)C(=O)CCn3ccc(C)n3)cc12 (stereo unspecified)		0.019
O=C(CCC(F)(F)F)NC1CC(=O)N(Cc2ccccc2C(F)(F)F)C1 (stereo unspecified)	0.944	
O=C(NCC1CCCN(Cc2ccc(O)cc2)C1)c1ccc(F)cc1 (stereo unspecified)		0.802
CCN(CC)C(=O)C1CCCN(C2CCN(c3nc4ccccc4o3)CC2)C1 (stereo unspecified)		0.937
CCCCC1CN(CCNC(=O)Cc2cc(OC)c(OC)c(OC)c2)Cc2ccccc2O1 (stereo unspecified)		0.731
CC(C)CCNC(=O)C1CCCN(C2CCN(Cc3ccccc3)CC2)C1 (stereo unspecified)		0.837
CCOC(=O)C1(Cc2cccc(OC)c2)CCCN(S(=O)(=O)c2ccc(C)s2)C1 (stereo unspecified)	0.089	
CN(C(=O)c1ccccn1)C(Cc1ccccc1)C1CCN(C(=O)c2csc3c2CCCC3)CC1 (stereo unspecified)		0.005

Given field by field: entries from further up.
COc1cccc(CCC(=O)N2CCC(n3nccc3NC(=O)CC(C)C)CC2)c1
  bacterial growth OD600 (polymyxin B 1 µg/mL): 0.83
CCN(CC)C(=O)C1CCCN(C2CCN(c3nc4ccccc4o3)CC2)C1 (stereo unspecified)
  bacterial growth OD600 (polymyxin B 0.75 µg/mL): 0.937
CC(C)CCNC(=O)C1CCCN(C2CCN(Cc3ccccc3)CC2)C1 (stereo unspecified)
  bacterial growth OD600 (polymyxin B 0.75 µg/mL): 0.837
